# Experimental data: the supplement of paper PMC10735217
# The other results are listed elsewhere or left out. Single values are uncertain here, since repeats match poorly.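 Human kidney-derived cells stably carry a construct in which eight TEAD-binding elements drive luciferase, measured by luminescence in a drug-repurposing library screen. A hit is any compound whose signal exceeds the plate mean by more than five robust Z scores.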
# Test system: HEK293A TEAD-LUC reporter
# Assay: TEAD-luciferase reporter activity (YAP activation), robust Z score vs plate; higher = stronger YAP/TEAD activation
# Conditions: 24 h
SMILES,TEAD-luciferase reporter activity (compound concentration: 200 nM),TEAD-luciferase reporter activity (compound concentration: 2 uM),TEAD-luciferase reporter activity (compound concentration: 10 uM)
C/C(=N\Nc1nnc2c(n1)[nH]c1c(C)cccc12)c1ccccn1,inactive: 0.409,inactive: -2.96,inactive: 1.18
NCC[C@H](O)C(=O)N[C@@H]1C[C@H](N)[C@@H](O[C@H]2O[C@H](CN)CC[C@H]2N)[C@H](O)[C@H]1O[C@H]1O[C@H](CO)[C@@H](O)[C@H](N)[C@H]1O,inactive: 0.828,inactive: -0.478,inactive: 0.376
O=C(O)C1CCN(C(=O)Cn2c(=O)sc3ccc(Cl)cc32)CC1,inactive: -0.777,inactive: -1.59,inactive: -0.0501
CS(=O)(=O)OCCC(=O)N1CCN(C(=O)CCOS(C)(=O)=O)CC1,inactive: -0.537,inactive: 1.81,inactive: -0.168
COC(=O)Nc1nc2ccc(C(=O)N3CCN(c4ccccn4)CC3)cc2[nH]1,inactive: -1.01,inactive: -0.185,inactive: 0.0817
CCOC(=O)C1C2C(=O)CC3(SCCS3)C21 (stereo not given),inactive: -0.721,inactive: 0.102,inactive: 1.1
O=C(O)C(S)CC(S)C(=O)O (stereo not given),inactive: 0.0202,inactive: -1.08,inactive: 1.78
c1ccc2c(COC3CCNCC3)cccc2c1,inactive: 0.464,inactive: 0.551,inactive: -0.997
COc1ccc(C(=O)N2CCC3(CC2)NC(=O)c2ccccc2O3)cc1,inactive: -2.58,–,inactive: 4.2
COC(=O)[C@H](c1ccccc1Cl)N1CCc2sccc2C1 [clopidogrel],inactive: -1.44,–,inactive: 0.155
"COC(=O)[C@H](c1ccccc1Cl)N1CCc2sccc2C1 [clopidogrel bisulfate, Prism]",–,inactive: -0.275,–
CC(OC(=O)OC1CCCCC1)OC(=O)C1=C(CSc2nnnn2CCN(C)C)CS[C@@H]2[C@H](NC(=O)Cc3csc(N)n3)C(=O)N12 (stereo not given in full),inactive: -1.99,inactive: 0.153,inactive: -1.22
CC(=O)O[C@H]1CC[C@@]2(C)C(=CC[C@@H]3[C@@H]2CC[C@]2(C)C(c4cccnc4)=CC[C@@H]32)C1 [abiraterone acetate],inactive: 2.42,inactive: 1.47,inactive: -0.507
COc1ccccc1N1CCN(CC2CN=C3c4ccccc4N=C(SC)N32)CC1 (stereo not given),inactive: -2.13,inactive: 0.669,active: 7.15
Cc1cc(NC(=O)c2ccc(C)c(C)c2)no1,active: 9.08,inactive: -0.395,inactive: -0.267
Cc1cc(C)c(Nc2ccnc(Nc3ccc(C#N)cc3)n2)c(C)c1 [dapivirine],inactive: -0.749,inactive: -1.23,inactive: -0.211
CCCCCCCCCc1ccc(OCCOCCOCCOCCOCCOCCOCCOCCOCCO)cc1 [Nonoxinol 9],inactive: -0.759,inactive: -1.19,inactive: -0.295
CCCCCCCC(=O)c1ccc(O)c(C(=O)O)c1 [beta-Lipohydroxy acid],inactive: -2.2,inactive: 1.65,inactive: 0.325
Cc1c(NCCN2CCCC2)cc(C(=O)C(C)(C)C)cc1N1CCN(c2ncnc3[nH]nc(Br)c23)CC1,inactive: -1.24,inactive: -0.916,inactive: -1.85

# Shown bar-delimited: entries from further up
SMILES | TEAD-luciferase reporter activity (compound concentration: 200 nM) | TEAD-luciferase reporter activity (compound concentration: 2 uM) | TEAD-luciferase reporter activity (compound concentration: 10 uM)
O=C(O)C(S)CC(S)C(=O)O (stereo not given) | inactive: 0.0202 | inactive: -1.08 | inactive: 1.78
c1ccc2c(COC3CCNCC3)cccc2c1 | inactive: 0.464 | inactive: 0.551 | inactive: -0.997
COc1ccc(C(=O)N2CCC3(CC2)NC(=O)c2ccccc2O3)cc1 | inactive: -2.58 | – | inactive: 4.2

# The listing continues.

SMILES,TEAD-luciferase reporter activity (compound concentration: 200 nM),TEAD-luciferase reporter activity (compound concentration: 2 uM),TEAD-luciferase reporter activity (compound concentration: 10 uM)
Oc1cc2c(cc1O)C(Cc1cccc3ccccc13)NCC2 (stereo not given),inactive: -0.95,inactive: -1.06,inactive: -1.52
CC(C)Oc1cccc(-n2c(CCc3c[nH]c4ccc(Br)cc34)nc3ccccc3c2=O)c1,inactive: -0.607,inactive: -1.22,inactive: -1.53
CCNCCS(=O)(=O)NC[C@]1(c2ccccc2)SC(NC(=O)C(C)(C)C)=NN1C(=O)C(C)(C)C [litronesib],inactive: -0.539,inactive: -1.6,inactive: -0.892
"NC(=O)CCC(N)C(=O)O [L-glutamine, BioKier]",inactive: -1.07,–,inactive: -0.228
CS(=O)(=O)NC(=O)CCC/C=C\C[C@H]1C(=O)C[C@@H](O)[C@@H]1/C=C/[C@@H](O)COc1ccccc1 [sulprostone],–,inactive: 1.44,–
CS(=O)(=O)NC(=O)CCC/C=C\C[C@H]1C(=O)C[C@@H](O)[C@@H]1/C=C/[C@@H](O)COc1ccccc1 [Sulprostone],inactive: 0.349,–,inactive: -0.97
COCCn1c2c([n+](Cc3cnccn3)c1C)C(=O)c1ccccc1C2=O [Sepantronium bromide],inactive: -2.01,inactive: -2.51,inactive: -3.96
CNCCOC(c1ccccc1)c1ccccc1C (stereo not given),inactive: 0.534,inactive: -0.275,inactive: 1.25
CCOCCN(Cc1ccc(Oc2ccc([N+](=O)[O-])cc2)cc1)C(=O)C(Cl)Cl,inactive: -1.05,inactive: -0.779,active: 5.09
O=C(Cc1ccccc1)NC1CCN(c2ccc3ncc(-c4cccc(C(F)(F)F)c4)n3n2)CC1,inactive: 0.612,–,inactive: -0.0118
Nc1ccn([C@H]2CO[C@@H](CO)S2)c(=O)n1 [Pharmaprojects No. 4701],inactive: 1.31,inactive: -0.807,inactive: -0.0257
NC(=O)N1C(=O)C(=C(O)c2cccs2)c2cc(Cl)ccc21 [Tenidap sodium],inactive: 0.658,inactive: -1.17,inactive: 0.489
Cc1cn2nc([C@@H]3CCCCN3C(=O)c3cc(Cl)ccc3NS(C)(=O)=O)cc2nc1N1CC[C@H](N)C1 [Presatovir],inactive: -0.0585,inactive: -1.53,inactive: 1.55
CCN(CC)CCNc1ccc(CO)c2sc3ccccc3c(=O)c12,inactive: 0.553,inactive: -2.68,inactive: -0.148
CCO[C@H]1O[C@H]([C@@H](CNC(=O)N(C)N=O)OC)[C@H](OC)[C@H]1O,inactive: -0.496,inactive: -0.575,inactive: -0.941
CC(C)(Oc1ccc(Cl)cc1)C(=O)N1CSCC1C(=O)O (stereo not given) [Timofibrate],inactive: -1.78,inactive: 0.858,inactive: 2.81
N=C(N)NCCCCC(=O)NCC(=O)NC(CC(=O)O)c1cccnc1 (stereo not given),inactive: -1.78,inactive: -0.502,inactive: -1.49
CCN(CC)CCNC(=O)c1cc(Cl)c(N)cc1OC,inactive: -1.13,–,inactive: 1.81
"CCN(CC)CCNC(=O)c1cc(Cl)c(N)cc1OC [metoclopramide, Diffucap]",–,inactive: 2.29,–

SMILES,TEAD-luciferase reporter activity (compound concentration: 200 nM),TEAD-luciferase reporter activity (compound concentration: 2 uM),TEAD-luciferase reporter activity (compound concentration: 10 uM)
O=C(O)Cc1sc(-c2ccccc2)nc1-c1ccc(Cl)cc1,–,inactive: -1.12,–
O=C(O)Cc1sc(-c2ccccc2)nc1-c1ccc(Cl)cc1 [Fentiazac],inactive: -1.24,–,inactive: -2.11
CC1CCC(C(C)C)C(OC(=O)C[N+](C)(C)CCCCCCCCCC[N+](C)(C)CC(=O)OC2CC(C)CCC2C(C)C)C1 (stereo not given) [Decamethoxine],inactive: -1.48,inactive: -1.84,inactive: -1.45
c1ccc2[nH]c(-c3cscn3)nc2c1,inactive: 2.38,–,inactive: 2.2
c1ccc2[nH]c(-c3cscn3)nc2c1 [Thiabendazole],–,inactive: -0.485,–
CCN(CC)CC1CCCCN1CC(=O)N1c2ccccc2C(=O)Nc2cccnc21 (stereo not given) [Otenzepad],–,inactive: -0.959,–
CCN(CC)CC1CCCCN1CC(=O)N1c2ccccc2C(=O)Nc2cccnc21 (stereo not given),inactive: -2.31,–,inactive: -1.19
CC(C)CN(C[C@@H](OP(=O)([O-])[O-])[C@H](Cc1ccccc1)NC(=O)O[C@H]1CCOC1)S(=O)(=O)c1ccc(N)cc1 [Fosamprenavir calcium],inactive: -0.313,inactive: -1.01,inactive: 0.211
CCCN(CCC)c1ccc(/N=N/c2ccccc2C(=O)O)cc1,inactive: 3.88,inactive: -0.309,inactive: 2.43
CCCc1c(OCCCOc2ccc(C(C)=O)c(OC)c2CCC)ccc2c1OC(C(=O)O)CC2 (stereo not given),inactive: -1.6,inactive: -0.897,inactive: 0.431
O=C1CCC(c2ccccc2)(C2CCN(C/C=C/c3ccccc3)CC2)C(=O)N1 (stereo not given),inactive: 0.46,inactive: -0.39,inactive: 0.987
O=C1NC(=O)C2(N1)c1ccccc1-c1ccccc12,inactive: -1.17,inactive: -1.58,inactive: 2.95
CNc1nc(C)nc(N[C@H]2CCC[C@@H](C(=O)NCc3ccc(C#N)cc3C(F)(F)F)C2)n1,inactive: 1.35,inactive: -1.13,inactive: 0.395
CCN1CCN(CC(=O)N2CCC(c3cccc(Cl)c3)C2)C(=O)C1=O (stereo not given),inactive: -0.404,inactive: 3.06,inactive: 0.284
C/C(=N/OCC(O)CNC(C)(C)C)C1CC1 (stereo not given) [falintolol],inactive: -0.393,inactive: -0.539,inactive: 0.416
N=C(NC(=N)N1CCN(C(=N)NC(=N)Nc2ccc(Cl)cc2)CC1)Nc1ccc(Cl)cc1,inactive: -1.24,inactive: -0.883,inactive: 1.53
CCC[C@@]1(CC(=O)OCC)OCCc2c1[nH]c1c(C)ccc(C#N)c21,inactive: -1.99,inactive: 2.12,inactive: 0.844
CC(=O)N1CCN(c2cc(-c3ccccc3)c(C(F)(F)F)nn2)CC1,inactive: 0.091,inactive: -1.32,inactive: -0.297
Cc1cc(N=C(Nc2nccs2)NC2CCCCC2)c2ccccc2n1 [timegadine],inactive: -1.36,inactive: -1.3,inactive: -0.834
